PubChem BioAssay AID652259, Drosophila RNAi Screening Center – 2013
In all, the deposit lists about 22,000 reagents; below is an unselected part of those with a known target gene and a result. In the full data, 233 (1.1%) got an active call. 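Light values are raw, unnormalised plate reads; the ratio scores behind the reporter calls were not deposited.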 A number with no mark means an inactive call. A plus sign joins genes that one reagent is predicted to hit. No sequences are given here. Not given: the amount of reagent, the time to read-out, the dose of the treatment.

- Test: 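Identify new Wingless signalling regulators in fly cells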 (primary screen)
- Cell system: Drosophila clone 8 imaginal disc epithelial cells
- Knock-down reagent: long dsRNA against Drosophila genes
- Challenge: pathway stimulated by co-transfected Wingless expression plasmid
- Read-out: 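Dual luciferase reads per well after Wingless plasmid stimulation: reporter firefly light and Renilla control light; activity is firefly divided by Renilla, a ratio not deposited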
- Scale: firefly reporter light: higher = more Wg reporter light, before normalisation; Renilla control light: higher = more transfected or surviving cells
- Call rule: 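Strong candidates differ from their plate mean by at least two out of four per-plate statistical tests; weak candidates meet just one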
- Calls: active = candidate regulator (raises or lowers reporter); inactive = not a candidate

Target gene,amplicon,"reporter change call, replicate 1","firefly reporter light, replicate 1","firefly reporter light, replicate 2","Renilla control light, replicate 1","Renilla control light, replicate 2"
Ac78C (Adenylyl cyclase 78C),DRSC11467,,3444,,1482,
Ac78C (Adenylyl cyclase 78C),DRSC11602,,13300,,4167,
Ac78C (Adenylyl cyclase 78C),DRSC11619,,14496,,5201,
CG5953,DRSC01546,,18520,,7728,
CG5953,DRSC02914,Wg reporter activity raised (active),4516,10685,496,1372
Odc2 (Ornithine decarboxylase 2),DRSC07483,,3608,6886,864,2533
CG5388,DRSC15789,,35202,,7012,
CG30031 + deltaTry + gammaTry,DRSC07622,,7122,,3762,
CG17260,DRSC00497,,10868,,4304,
CstF64 (Cleavage stimulation factor 64 kD subunit),DRSC16616,,15313,,4842,
Atg10 (Autophagy-related 10),DRSC06172,,4851,8201,101,3201
Tango9 (Transport and Golgi organization 9),DRSC14173,,8755,,2869,
Art1 (Arginine methyltransferase 1),DRSC16063,,5746,,1913,
Oseg6 (Outer segment 6),DRSC06066,,5244,,1735,
CG34241,DRSC09157,,3041,,1830,
I-2 (Inhibitor-2),DRSC11194,,9783,,2660,
Pmvk (Phosphomevalonate kinase),DRSC02032,,2874,7581,682,2629
CG7755,DRSC07040,,13909,,5108,
CG3546,DRSC18308,,10637,,10133,
CG34124,DRSC00849,,29017,,11376,
Idgf2 (Imaginal disc growth factor 2),DRSC03350,,6986,,2395,
mtsh (mitoshell),DRSC03070,,4135,6549,1056,2850
Elp1 (Elongator complex protein 1),DRSC14250,,6515,,2481,
CG5493 + CG5327,DRSC06938,,10064,,3011,
Btnd (Biotinidase),DRSC18316,,15747,,7434,
mxc (multi sex combs),DRSC17819,,20576,,8930,
TwdlT (TweedleT),DRSC16677,,8837,,3184,
TwdlT (TweedleT),DRSC21540,,3.95e5,4.00e5,2.24e5,1.94e5
Tap42 (Two A-associated protein of 42kDa),DRSC02967,,1620,5324,865,2740
slif (slimfast),DRSC11635,,10300,,4487,
pkaap,DRSC01925,,3297,4195,1286,2307
CG31915,DRSC03000,,1673,4025,714,1009
Lcp65Ae,DRSC11212,,888,6301,833,2900

Continued, starting with the last 5 of the part before.
Target gene,amplicon,"reporter change call, replicate 1","firefly reporter light, replicate 1","firefly reporter light, replicate 2","Renilla control light, replicate 1","Renilla control light, replicate 2"
Tap42 (Two A-associated protein of 42kDa),DRSC02967,,1620,5324,865,2740
slif (slimfast),DRSC11635,,10300,,4487,
pkaap,DRSC01925,,3297,4195,1286,2307
CG31915,DRSC03000,,1673,4025,714,1009
Lcp65Ae,DRSC11212,,888,6301,833,2900
Det (Deterin),DRSC14489,,18496,,5200,
CG34404,DRSC15335,,15782,,4291,
CG34404,DRSC15978,,5527,,1905,
CG11353,DRSC08182,,8490,,3892,
Cyp313b1 (Cytochrome P450 313b1),DRSC16629,,14816,,3424,
CG13992,DRSC02324,,2512,4992,946,1943
Slmap (Sarcolemma associated protein),DRSC03799,,3316,6602,613,2042
Ddc (Dopa decarboxylase),DRSC03314,,2232,8074,778,3058
Glt (Glutactin),DRSC03333,,6443,,1696,
Rh4 + sina,DRSC11396,,6403,,2594,
Dhc36C (Dynein heavy chain at 36C),DRSC03315,,2020,7945,1328,3712
ppk31 (pickpocket 31),DRSC13811,,3719,,1541,
retn (retained),DRSC04679,,3318,10226,786,3714
RPA2 (Replication protein A2),DRSC03184,,8101,,2624,
Srrm1 (Serine-arginine repetitive matrix 1),DRSC09835,,7139,,2832,
CG15676,DRSC04267,,2455,4523,881,1944
Sym (Symplekin),DRSC12301,,3862,,2244,
CG43707,DRSC00280,,3491,11623,1408,4018
CG43707,DRSC22869,,6.11e5,4.64e5,2.64e5,2.53e5
CG43707,DRSC22912,,4.52e5,5.04e5,1.42e5,1.01e5
asRNA:CR33945 (antisense RNA:CR33945),DRSC14080,,3381,,1315,
vap (vacuolar peduncle),DRSC20275,,2439,7297,747,1909
Pask (PAS kinase),DRSC04337,,7008,,2311,
Exd2 (Exonuclease 3'-5' domain-containing 2),DRSC16105,,11350,,2163,
Mics1 (Mitochondrial morphology and cristae structure 1),DRSC12537,,20209,,5506,
CG13751,DRSC06422,,3383,6023,770,2867
CG1582,DRSC19732,,1869,6619,793,2812
GstE11 (Glutathione S transferase E11),DRSC06926,,18217,,4413,
pho (pleiohomeotic),DRSC17219,,16343,,11832,
stck (steamer duck),DRSC17070,,15595,,4118,
Ets96B,DRSC16127,,20461,,16985,
Cyp4d20 (Cytochrome P450 4d20),DRSC08654,,8726,,2720,
CG13482,DRSC10024,,8819,,3703,
CG14861,DRSC14984,,9392,,1936,
Mad1 (Mitotic arrest-deficient 1),DRSC07561,,9693,,2765,
Cyp4d1 (Cytochrome P450 4d1),DRSC17694,,3896,,1540,
Cyp4d1 (Cytochrome P450 4d1),DRSC18456,,14979,,16251,
AOX4 (Aldehyde oxidase 4),DRSC15337,,13248,,2423,
ItgaPS5 (Integrin alphaPS5 subunit),DRSC04501,,3400,10922,877,4053
Pura (Puratrophin-1-like),DRSC08891,,3947,,1146,
Pura (Puratrophin-1-like),DRSC10862,,934,7113,656,3031
Pura (Puratrophin-1-like),DRSC10864,,1093,8950,791,2857
Pura (Puratrophin-1-like),DRSC10865,,1500,6171,1041,3127
Pura (Puratrophin-1-like),DRSC10866,,1920,7866,1832,5056
